# Results published in the supplement of paper PMC6411743.
# ± gives the standard deviation of the averaged measurements. This is one part of the list.
# Target: T1, C9JFB2 and related entries (UniProt Q9Y548)
# T1 sequence (whole entry): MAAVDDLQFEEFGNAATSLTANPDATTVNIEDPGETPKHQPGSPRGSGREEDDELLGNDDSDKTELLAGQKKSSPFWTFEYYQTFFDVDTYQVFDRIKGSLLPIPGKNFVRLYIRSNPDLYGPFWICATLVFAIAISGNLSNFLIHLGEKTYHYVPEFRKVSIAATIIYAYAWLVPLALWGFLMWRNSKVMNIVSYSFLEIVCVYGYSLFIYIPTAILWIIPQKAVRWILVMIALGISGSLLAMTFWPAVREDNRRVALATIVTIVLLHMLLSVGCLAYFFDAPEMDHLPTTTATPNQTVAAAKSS
# Experiment: NP40-soluble protein abundance relative to vehicle (solubility fold change) (ratio); higher = more soluble protein in presence of GTP
# Experimental: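 Solubility proteome profiling in Jurkat crude lysate. Lysate was treated with Mg-GTP (0.1-10 mM) for 10 min at room temperature and 3 min at 37 °C, then solubilised with 0.8% NP40 and benzonase, followed by ultracentrifugation. Proteins were quantified by TMT10 LC-MS/MS; the value is the NP40-soluble abundance relative to the NP40-processed vehicle, from 3 independent experiments.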
smiles,measurement,setting,value
Nc1nc2c(ncn2[C@@H]2O[C@H](COP(=O)(O)OP(=O)(O)OP(=O)(O)O)[C@@H](O)[C@H]2O)c(=O)[nH]1 [guanosine triphosphate],NP40-soluble protein abundance,concentration: 0.1mM,0.964 ± 0.041
same,NP40-soluble protein abundance,concentration: 0.5mM,1.02 ± 0.017
same,NP40-soluble protein abundance,concentration: 1mM,0.98 ± 0.1
same,NP40-soluble protein abundance,concentration: 2mM,0.935 ± 0.04
same,NP40-soluble protein abundance,concentration: 4mM,0.918 ± 0.094
same,NP40-soluble protein abundance,concentration: 6mM,0.905 ± 0.087
same,NP40-soluble protein abundance,concentration: 8mM,0.896 ± 0.15
same,NP40-soluble protein abundance,concentration: 10mM,0.918 ± 0.048
